# Test results as given in US11733246B2, “Compositions, imaging, and therapeutic methods targeting folate receptor 1 (FOLR1)” (Indi Molecular, Inc., priority 2020, dated 2023).
# At least one peptide structure holds a part that was inferred or is arguable (an end, a ring closure or a residue). Numbered stars: 1 amine (or outer) side, 2 acyl side, 3 side chain; on linkers, the order of the positions; unused ones are H or OH. Bridge positions count the residues as written; N and C are the ends. Square brackets hold non-standard residues; d marks the D form. Triazole bridges read from a SMILES are 1,4-linked. Peptide text beside a SMILES is read from it. * marks the point of attachment. DOTA = O=C(O)CN1CCN(CC(=O)O)CCN(CC(=O)*)CCN(CC(=O)O)CC1; Pteroyl = Nc1nc2ncc(CNc3ccc(C(=O)*)cc3)nc2c(=O)[nH]1; Biotin = O=C1N[C@H]2[C@H](CS[C@H]2CCCCC(=O)*)N1; Butanoyl(4-(4-MePh)) = Cc1ccc(CCCC(=O)*)cc1; Lys(N3) = [N-]=[N+]=NCCCC[C@H](N)C(=O)O; γGlu = O=C(O)[C@H](CCC(=O)[*:2])N[*:1]; AEEEA = NCCOCCOCCOCC(=O)O; Pra = C#CC[C@H](N)C(=O)O
# Tests used:
# OVCAR3 xenografts = assay: 177Lu FOLR1 radioligand therapy in OVCAR3 xenograft model; type: in vivo, mouse
# Protocol: Water and food were provided ad libitum. […] Tumor growth was monitored by caliper measurements.
# OVCAR3 tumor bearing mice were used to study FOLR1-directed radioligand therapy (RLT) for treatment of ovarian cancer. Animals were administered a single dose of heterobiligand (vehicle control) or 111, 37, 18.5, 9.25, or 3.7 MBq [^177Lu]DOTA-labeled heterobiligand. Mice received the dose intravenously (i.v.) via the tail vein. To monitor the effect of the RLT, tumor size measurements were taken twice weekly and body weights were measured.
# The engraftment was allowed to expand until palpable tumor sizes ranging in size from 218-384 mm^3 were detected. […] These observed effects were consistant with radiation overdosing. […] The best response was observed using 9.25 MBq Lu-177 Heterobiligand (compound #2809).
# Single dose treatments at 18.5 MBq/nmol specific activity. OVCAR3 mouse model was used. 10^7 cell tumors were implanted in the mice one month before administration of ^177Lu-#6305. Five mice each were administered Cold #6305, 9.25 MBq Lu177-#6305, and 14.8 MBq Lu177-#6305, and two mice were administered 29.6 MBq Lu177-#6305. Tumor growth and body weight were then monitored.
# Female NSG mice were implanted subcutaneously with OVCAR3 cells. Once tumors reached volumes of 200 mm^3, the animals were treated with 177-Lu 7327. Three treatment arms of 9.25 MBq, 14.8 MBq, and 29.6 MBq were studied.
# Female NSG mice were implanted subcutaneously with human OVCAR3 (FOLR+) ovarian cancer cells. Once tumors reached volumes of 200 mm^3, the animals were treated with Indi ^177Lu-7327. One treatment arm of 74 MBq and a control group of 0 MBq were studied (FIGS. 41 and 38A). […] The second dose was administered 21 days following the first dose. Statistically significant differential between treated and control was reached 24 days post-injection (three days following the second dose) for the 74 MBq arm. P values (* for p≤0.05, ** for p≤0.01) were determined by ordinary one-way ANOVA with Tukey's multiple comparisons test.
# OVCAR3 FOLR1+ cells = assay: Flow cytometry binding to FOLR1 (+) cells; type: cell-based, human; details: OVCAR3 vs PC-3, flow cytometry
# Protocol: Both the kyeet (SEQ ID NO:9) and hshta (SEQ ID NO:6)-derived biligands were tested by flow cytometry for binding to FOLR1 (+) and FOLR1 (−) cell lines (FIGS. 6 and 7). The human ovarian adenocarcinoma-derived cell line OVCAR3 has robust FOLR1 expression and was selected as the FOLR1 (+) cell line. The human prostate adenocarcinoma-derived cell line PC-3 was selected as a FOLR1 (−) cell line.
# Competition at the cellular level was also probed.
# Increasing the serum-bound fraction of the peptide may decrease first pass removal of the heterobiligand, and drive compound retention of tumor over kidney. Constructs bearing the known albumin binder 4-methylphenyl butyric acid (4-MPBA) were synthesized. These compounds were evaluated in vitro to verify binding fidelity to FOLR1. The modified heterobiligands were incubated at 400 nM with OVCAR3 and PC-3 cells for 20 minutes at 37° C. in complete media containing 20% FBS. They both bind to OVCAR3 FOLR1+ cells with similar binding affinities as the original heterobiligand studied (FIG. 14). […] Similar activity of these heterobiligands is anticipated in vivo.
structure (smiles),measurement,setting,value
"Cc1ccc(CCCC(=O)NCCCC[C@H](NC(=O)COCCOCCOCCNC(=O)[C@@H]2CCCCn3cc(nn3)C[C@H](NC(=O)CC[C@H](NC(=O)c3ccc(NCc4cnc5nc(N)[nH]c(=O)c5n4)cc3)C(=O)O)C(=O)N[C@H](Cc3c[nH]cn3)C(=O)N[C@H](CO)C(=O)N[C@H](Cc3c[nH]cn3)C(=O)N[C@H]([C@H](C)O)C(=O)N[C@H](C)C(=O)N2)C(=O)N[C@@H](CCCCNC(=O)CN2CCN(CC(=O)O)CCN(CC(=O)O)CCN(CC(=O)O)CC2)C(N)=O)cc1 [^177Lu-#2809, metal not drawn] ({Pteroyl-γGlu}-[Pra][dH][dS][dH][dT][dA][Lys(N3)][AEEEA]K(Butanoyl(4-(4-MePh)))K(DOTA)-NH2; triazole 1-7)",tumor response,OVCAR3 xenografts; 9.25 MBq and 3.7 MBq,significant tumor reduction proportional to the dose received
same,tumor growth compared to control cohort,"OVCAR3 xenografts; repeat experiment, 9.25 MBq or 3.7 MBq, out to 17 days",clear differential in tumor growth
same,therapy response,"OVCAR3 xenografts; single dose 3.7 MBq, 81.4 MBq/nmol specific activity",partial response
same,therapy response,"OVCAR3 xenografts; single dose 9.25 MBq, 81.4 MBq/nmol specific activity",Significant tumor growth control
C[C@H](O)[C@H]1NC(=O)[C@@H](Cc2c[nH]cn2)NC(=O)[C@@H](CO)NC(=O)[C@@H](Cc2c[nH]cn2)NC(=O)[C@@H](NC(=O)COCCOCCOCCNC(=O)CCCC[C@@H]2SC[C@@H]3NC(=O)N[C@@H]32)Cc2cn(nn2)CCCC[C@@H](C(N)=O)NC(=O)[C@@H](C)NC1=O [hshta] ({Biotin-AEEEA}-[Pra][dH][dS][dH][dT][dA][Lys(N3)]-NH2; triazole 1-7),selectivity for FOLR1 (+) cells over FOLR1 (−) cells,OVCAR3 FOLR1+ cells,higher selectivity for FOLR1 than kyeet
"Cc1ccc(CCCC(=O)NCCCC[C@H](NC(=O)[C@@H]2CCCCn3cc(nn3)C[C@H](NC(=O)CC[C@H](NC(=O)c3ccc(NCc4cnc5nc(N)[nH]c(=O)c5n4)cc3)C(=O)O)C(=O)N[C@H](Cc3c[nH]cn3)C(=O)N[C@H](CO)C(=O)N[C@H](Cc3c[nH]cn3)C(=O)N[C@H]([C@H](C)O)C(=O)N[C@H](C)C(=O)N2)C(=O)NCC(=O)N[C@@H](Cc2ccccc2)C(=O)N[C@@H](CCCCNC(=O)CN2CCN(CC(=O)O)CCN(CC(=O)O)CCN(CC(=O)O)CC2)C(=O)O)cc1 [^177Lu-#6305, metal not drawn] ({Pteroyl-γGlu}-[Pra][dH][dS][dH][dT][dA][Lys(N3)]K(Butanoyl(4-(4-MePh)))GFK(DOTA)-OH; triazole 1-7)",OVCAR3 tumor growth,"OVCAR3 xenografts; 14.8 MBq, single dose",significantly slowed down OVCAR3 tumor growth
same,therapy response,"OVCAR3 xenografts; single dose 9.25 MBq, 18.5 MBq/nmol specific activity",nonresponse
same,therapy response,"OVCAR3 xenografts; single dose 14.8 MBq, 18.5 MBq/nmol specific activity",partial response
"C[C@H](O)[C@H]1NC(=O)[C@@H](Cc2c[nH]cn2)NC(=O)[C@@H](CO)NC(=O)[C@@H](Cc2c[nH]cn2)NC(=O)[C@@H](NC(=O)CC[C@H](NC(=O)c2ccc(NCc3cnc4nc(N)[nH]c(=O)c4n3)cc2)C(=O)O)Cc2cn(nn2)CCCC[C@@H](C(=O)NCC(=O)N[C@@H](Cc2ccccc2)C(=O)N[C@@H](CCCCNC(=O)CN2CCN(CC(=O)O)CCN(CC(=O)O)CCN(CC(=O)O)CC2)C(=O)O)NC(=O)[C@@H](C)NC1=O [Indi ^177Lu-7327, Folate-hshta-G-F-K(^177Lu-DOTA)-OH, metal not drawn] ({Pteroyl-γGlu}-[Pra][dH][dS][dH][dT][dA][Lys(N3)]GFK(DOTA)-OH; triazole 1-7)",time to statistically significant differential between treated and untreated,OVCAR3 xenografts; 29.6 MBq arm,12 days post injection
same,caliper-measured tumor volume,"OVCAR3 xenografts; 29.6 MBq arm, two doses 21 days apart",stabilized and then fell following the second dose
same,tumor size after additional treatment on day 24,"OVCAR3 xenografts; 46.3, 74 and 148 MBq groups",shrinking tumor sizes
same,tumor volume,"OVCAR3 xenografts; 46.3 MBq group, elevated dose",stable tumor volumes
same,tumor volume decrease (average),"OVCAR3 xenografts; 74 MBq and 148 MBq, single elevated dose at 45 days post injection",50%
same,time to statistically significant differential between treated and control,OVCAR3 xenografts; 74 MBq arm,24 days post-injection
same,"anti-tumor activity, repeated treatment",OVCAR3 xenografts; radioactive doses of 29.6 and 74 MBq,FOLR-dependent tumor growth control
same,tumor volume,"OVCAR3 xenografts; two doses at 74 MBq, 21 days apart",decrease in tumor volume
same,tumor volume,"OVCAR3 xenografts; two doses, arms of 9.25, 14.8 and 29.6 MBq",dose dependent decrease in tumor volume
same,tumor response,OVCAR3 xenografts; two treatments at 29.6 MBq,tumor stasis
same,tumor response,OVCAR3 xenografts; two treatments at 29.6 MBq followed by a third treatment at 74 MBq,Tumor regression
same,tumor response,OVCAR3 xenografts; two treatments at 74 MBq,Tumor stasis
